Assay results as given in US6783756B2, “Methods for regulating gene expression” (Abbott GmbH & Co., KG, priority 1993, dated 2004).
For at least one compound, name, drawing or mass did not settle the structure.

By UniProt entry, the sequences of proteins in these tests, tags left out.
UniProt P04483, whole entry, added parts left off: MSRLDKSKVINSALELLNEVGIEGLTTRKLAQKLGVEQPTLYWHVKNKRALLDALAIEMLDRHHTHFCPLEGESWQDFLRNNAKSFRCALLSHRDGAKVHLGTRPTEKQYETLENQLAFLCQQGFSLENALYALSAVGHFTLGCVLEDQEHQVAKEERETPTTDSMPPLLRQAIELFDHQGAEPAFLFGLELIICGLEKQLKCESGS

Key:
tTA [1] = target: T1, tTA (Escherichia coli, UniProt P04483); assay: Luciferase activity in tissues of double transgenic mice (PhCMV-tTA and PhCMV*-1-luc) given doxycycline; type: in vivo; parameters: LOCATION: 1..207; from tissue; host or cells: Tissues (heart, muscle, pancreas, thymus, tongue) of double transgenic mice carrying PhCMV-tTA and PhCMV*-1-luc
tTA [2] = target: T1, tTA; assay: Kinetics of tetracycline action on luciferase activity in X1 cells; type: cell-based, human; parameters: LOCATION: 1..207; expressed in transfected cells; conditions: for Reduction of luciferase activity after addition of tetracycline: X1 cells
Experimental: FIG. 3B: Kinetics of tetracycline action. X1 cells were grown in 100 mm dishes to 80% confluency in the absence or presence (0.1 μg/ml) of tetracycline. At time 0, cells were washed with phosphate-buffered saline and split into smaller culture dishes ( 1/20th of the initial cultures per 35 mm dish). Half of the cultures remained in tetracycline-free medium (▪) and the other half were incubated in the presence of tetracycline (1 μg/ml; □). The X1 culture grown in tetracycline-containing medium was split in the same manner; one half was further incubated in the presence of tetracycline (●), whereas the other half was transferred to tetracycline-free medium (∘). At the times indicated, aliquots were harvested and examined for luciferase activity. The slight increase in luciferase activity monitored at 4 hr in the culture containing tetracycline (●) is reproducible and reflects luciferase induction during the washing step.
The time course of tetracycline action was analyzed in cultures grown in the absence or presence of tetracycline. At time 0, the antibiotic was added to the tetracycline-free cultures (final concentration, 1 μg/ml), whereas the tetracycline-containing cultures were rinsed and incubated in fresh antibiotic-free medium (FIG. 3 panel b). At various times, cells were harvested and analyzed for luciferase activity. […] A similarly rapid reduction of luciferase activity was observed when tetracycline was added to the fully active tetracycline-free system: within 8 hr activity dropped to about 10% and reached <2% of its original value after 12 hr.

tetR [3] = target: T2, tetR (Escherichia coli, UniProt P04483); conditions: cited from earlier work
tetR [4] = target: T2, tetR; conditions: plant cells; cited from earlier work
tTA [5] = target: T1, tTA; assay: Luciferase activity of stable HeLa cell clones (tTA plus PhCMV*-1/-2 luciferase) with and without tetracycline; type: cell-based, E. coli; parameters: LOCATION: 1..207; expressed in transfected cells; conditions: for Luciferase activity, With Tc: tetracycline 1 μ/ml; for Activation Factor: without Tc versus with Tc 1 μ/ml
tTA [6] = target: T1, tTA; assay: Luciferase activity in HeLa cells transiently cotransfected with pUHC13-3/pUHC13-4 and pUHD15-1; type: cell-based, E. coli; parameters: LOCATION: 1..207; expressed in transfected cells; conditions: transient transfection, tetracycline 1.0 tg/ml
tTA binding to tetO DNA = target: T3, tTA binding to tetO DNA (Escherichia coli, UniProt P04483); assay: Band-shift assay of tetO DNA with nuclear extracts of pUHD15-1-transfected HeLa cells; parameters: species or system E. coli; conditions: 1 μg of tetracycline per ml
T3 construct: LOCATION: 1..207; expressed in transfected cells

## C[C@H]1c2cccc(O)c2C(=O)C2=C(O)[C@]3(O)C(=O)C(C(N)=O)=C(O)[C@@H](N(C)C)[C@@H]3[C@@H](O)[C@@H]21 [doxycycline]
tTA [1]; drinking water 200 μg per ml with 5% sucrose, 7 days
  Luciferase activity in tissues after administration of doxycycline: reduced close to background levels
tTA [1]; e.g. pancreas, doxycycline 7 days
  Regulation factor, induced versus non-induced luciferase level: up to 10,000 fold

## CN(C)[C@@H]1C(O)=C(C(N)=O)C(=O)[C@@]2(O)C(O)=C3C(=O)c4c(O)cccc4[C@@](C)(O)[C@H]3C[C@@H]12 [tetracycline]
tTA [2]; within 8 hr
  Reduction of luciferase activity after addition of tetracycline: 10 fold
tTA [2]; within 12 hr
  Reduction of luciferase activity after addition of tetracycline: > 50 fold
tTA [2]; cells from tetracycline containing medium
  Time until significant luciferase activity is induced after shift to tetracycline-free medium: ≤ 4 h
tetR [3]
  ka of tetR for tetracycline: ~109 M⁻¹
tetR [4]
  Time within which tetracycline inactivates tetR: < 30 min
tTA [5]; 0-1 μg/ml tetracycline in culture medium, HeLa cells expressing TetR-VP16 tTA
  Range of regulation of luciferase activity by tetracycline concentration: up to five orders of magnitude
tTA [5]; FIG. 3 panel A, HeLa clones X1 and T12
  Tetracycline concentration that begins to decrease luciferase expression: 0.0001 µg/mL
tTA [5]; FIG. 3 panel a, clones T12 and X1
  Tetracycline concentration giving partial inactivation of tTA: below 0.1 μg/ml
tTA [5]; HeLa clone T7
  Luciferase activity, With Tc: 1074 ± 75 rlu/μ of protein
  Activation Factor: 7.3 × 10^1
tTA [5]; HeLa clone T11
  Luciferase activity, With Tc: 2.5 ± 0.4 rlu/μ of protein
  Activation Factor: 1.3 × 10^4
tTA [5]; HeLa clone T12
  Luciferase activity, With Tc: 3.5 ± 0.9 rlu/μ of protein
  Activation Factor: 1 × 10^4
tTA [5]; HeLa clone T14
  Luciferase activity, With Tc: ≦2 rlu/μ of protein
  Activation Factor: ≧1.5 × 10^1
tTA [5]; HeLa clone T15
  Luciferase activity, With Tc: 286 ± 47 rlu/μ of protein
  Activation Factor: 1.7 × 10^2
tTA [5]; HeLa clone T16
  Luciferase activity, With Tc: ≦2 rlu/μ of protein
  Activation Factor: ≧2.7 × 10^2
tTA [5]; HeLa clone X1
  Luciferase activity, With Tc: ≦2 rlu/μ of protein
  Activation Factor: ≧2.7 × 10^5
tTA [5]; HeLa clone X2
  Luciferase activity, With Tc: ≦2 rlu/μ of protein
  Activation Factor: ≧ 5 × 10^4
tTA [5]; HeLa clone X7
  Luciferase activity, With Tc: 75 ± 7 rlu/μ of protein
  Activation Factor: 1.6 × 10^3
tTA [5]; clone X1
  Reduction of luciferase activity by tetracycline: five orders of magnitude
tTA [5]; clones T14, T16, X1 and X2
  Luciferase activity in the presence of tetracycline: values that cannot be quantified
tTA [6]
  Luciferase activity of cultures grown in the presence of tetracycline: Little activity
tTA binding to tetO DNA
  Mobility change of tetO DNA by tTA in the presence of tetracycline: no mobility change for tetO DNA was detectable
